From the supplement of paper PMC10849652
The other results are listed elsewhere or left out.

By UniProt entry, the sequences of proteins in these tests, tags left out. Where a name states a change or a piece, a line headed by the entry shows the natural chain unless it says otherwise.
UniProt Q9H0L4: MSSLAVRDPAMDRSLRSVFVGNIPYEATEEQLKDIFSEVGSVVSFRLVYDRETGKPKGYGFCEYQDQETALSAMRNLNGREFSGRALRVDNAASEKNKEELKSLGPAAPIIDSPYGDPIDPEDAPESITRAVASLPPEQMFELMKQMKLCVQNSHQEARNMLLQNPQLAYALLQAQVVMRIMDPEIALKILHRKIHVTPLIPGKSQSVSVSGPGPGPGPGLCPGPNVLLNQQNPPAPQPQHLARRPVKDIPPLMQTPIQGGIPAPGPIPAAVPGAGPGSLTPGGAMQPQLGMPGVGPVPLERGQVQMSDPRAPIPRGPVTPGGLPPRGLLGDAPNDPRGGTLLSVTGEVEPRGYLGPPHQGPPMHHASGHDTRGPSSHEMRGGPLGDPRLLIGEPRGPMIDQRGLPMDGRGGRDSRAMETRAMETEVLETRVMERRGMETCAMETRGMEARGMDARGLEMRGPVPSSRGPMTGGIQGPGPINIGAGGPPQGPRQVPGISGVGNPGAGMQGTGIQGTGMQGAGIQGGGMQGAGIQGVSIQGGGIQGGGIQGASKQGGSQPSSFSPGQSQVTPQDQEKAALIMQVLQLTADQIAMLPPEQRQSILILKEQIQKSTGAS
UniProt Q93034, whole entry, looked up: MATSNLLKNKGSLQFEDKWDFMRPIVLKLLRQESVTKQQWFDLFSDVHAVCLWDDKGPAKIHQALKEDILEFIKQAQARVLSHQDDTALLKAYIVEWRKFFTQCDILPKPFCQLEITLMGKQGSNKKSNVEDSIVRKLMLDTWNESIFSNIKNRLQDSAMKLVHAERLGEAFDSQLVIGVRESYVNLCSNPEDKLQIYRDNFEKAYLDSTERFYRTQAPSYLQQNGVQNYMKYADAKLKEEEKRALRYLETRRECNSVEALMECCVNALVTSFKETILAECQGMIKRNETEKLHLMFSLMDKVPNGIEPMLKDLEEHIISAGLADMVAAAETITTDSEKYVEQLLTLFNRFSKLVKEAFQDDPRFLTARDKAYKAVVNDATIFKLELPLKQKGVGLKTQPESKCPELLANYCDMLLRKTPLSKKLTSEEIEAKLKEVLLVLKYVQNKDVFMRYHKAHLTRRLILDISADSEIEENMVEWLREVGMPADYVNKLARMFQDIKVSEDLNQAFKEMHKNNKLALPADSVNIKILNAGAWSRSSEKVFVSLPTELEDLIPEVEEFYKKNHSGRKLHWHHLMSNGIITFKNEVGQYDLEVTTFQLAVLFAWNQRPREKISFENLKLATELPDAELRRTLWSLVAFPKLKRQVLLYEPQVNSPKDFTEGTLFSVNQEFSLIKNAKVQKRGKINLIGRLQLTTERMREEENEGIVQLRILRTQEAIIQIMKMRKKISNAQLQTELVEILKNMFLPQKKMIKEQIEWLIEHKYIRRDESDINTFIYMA
UniProt Q9NPI6: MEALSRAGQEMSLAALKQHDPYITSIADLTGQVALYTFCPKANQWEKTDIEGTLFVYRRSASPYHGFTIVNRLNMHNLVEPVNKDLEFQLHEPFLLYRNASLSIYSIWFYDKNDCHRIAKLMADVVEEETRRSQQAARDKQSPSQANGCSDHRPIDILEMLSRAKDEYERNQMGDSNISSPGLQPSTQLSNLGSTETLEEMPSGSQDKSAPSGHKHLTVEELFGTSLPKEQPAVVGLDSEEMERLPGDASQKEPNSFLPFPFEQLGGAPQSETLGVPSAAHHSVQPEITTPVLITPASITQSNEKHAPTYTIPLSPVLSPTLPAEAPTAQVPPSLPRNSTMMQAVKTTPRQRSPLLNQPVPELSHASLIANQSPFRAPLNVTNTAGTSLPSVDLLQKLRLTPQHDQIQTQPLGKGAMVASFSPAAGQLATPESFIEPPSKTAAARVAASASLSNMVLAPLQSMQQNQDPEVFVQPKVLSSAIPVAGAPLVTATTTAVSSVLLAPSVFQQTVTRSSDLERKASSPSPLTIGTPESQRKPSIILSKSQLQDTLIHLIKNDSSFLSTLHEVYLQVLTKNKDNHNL
UniProt Q69YN2: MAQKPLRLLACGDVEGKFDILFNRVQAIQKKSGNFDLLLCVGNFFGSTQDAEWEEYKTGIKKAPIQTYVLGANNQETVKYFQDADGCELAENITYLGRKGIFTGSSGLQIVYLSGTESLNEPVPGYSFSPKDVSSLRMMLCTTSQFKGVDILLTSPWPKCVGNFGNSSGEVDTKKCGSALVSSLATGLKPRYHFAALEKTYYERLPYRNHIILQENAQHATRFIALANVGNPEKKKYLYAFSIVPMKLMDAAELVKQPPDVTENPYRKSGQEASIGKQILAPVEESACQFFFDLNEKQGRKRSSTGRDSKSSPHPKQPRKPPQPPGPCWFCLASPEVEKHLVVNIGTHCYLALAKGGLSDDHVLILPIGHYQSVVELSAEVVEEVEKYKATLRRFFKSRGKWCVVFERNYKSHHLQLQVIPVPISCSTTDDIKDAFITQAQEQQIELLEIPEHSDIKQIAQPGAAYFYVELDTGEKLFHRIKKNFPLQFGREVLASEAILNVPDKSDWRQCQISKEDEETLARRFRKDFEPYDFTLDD
UniProt Q8WVC6: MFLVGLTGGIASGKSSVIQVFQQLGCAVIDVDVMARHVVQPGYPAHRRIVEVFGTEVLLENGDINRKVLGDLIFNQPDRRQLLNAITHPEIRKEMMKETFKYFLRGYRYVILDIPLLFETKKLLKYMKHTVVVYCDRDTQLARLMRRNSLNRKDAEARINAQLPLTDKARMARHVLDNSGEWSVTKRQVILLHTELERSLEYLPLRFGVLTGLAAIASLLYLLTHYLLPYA
UniProt Q8NCG7: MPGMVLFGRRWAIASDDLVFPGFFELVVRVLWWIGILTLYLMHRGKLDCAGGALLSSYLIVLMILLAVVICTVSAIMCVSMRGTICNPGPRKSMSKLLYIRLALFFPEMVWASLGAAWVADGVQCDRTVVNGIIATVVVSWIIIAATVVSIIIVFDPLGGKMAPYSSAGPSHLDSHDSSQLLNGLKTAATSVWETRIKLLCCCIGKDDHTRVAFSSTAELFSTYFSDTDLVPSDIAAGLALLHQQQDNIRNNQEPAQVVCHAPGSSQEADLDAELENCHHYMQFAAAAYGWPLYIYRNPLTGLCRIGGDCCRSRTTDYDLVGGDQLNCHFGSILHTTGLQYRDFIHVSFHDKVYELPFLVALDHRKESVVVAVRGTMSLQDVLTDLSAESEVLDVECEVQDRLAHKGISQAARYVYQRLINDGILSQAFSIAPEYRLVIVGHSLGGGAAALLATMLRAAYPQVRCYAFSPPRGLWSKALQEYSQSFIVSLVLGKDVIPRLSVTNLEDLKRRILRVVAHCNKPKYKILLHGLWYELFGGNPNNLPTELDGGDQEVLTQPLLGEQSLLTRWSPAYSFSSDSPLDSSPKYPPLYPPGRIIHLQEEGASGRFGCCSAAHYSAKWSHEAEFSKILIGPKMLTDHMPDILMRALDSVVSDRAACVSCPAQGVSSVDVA
UniProt Q13561, whole entry, looked up: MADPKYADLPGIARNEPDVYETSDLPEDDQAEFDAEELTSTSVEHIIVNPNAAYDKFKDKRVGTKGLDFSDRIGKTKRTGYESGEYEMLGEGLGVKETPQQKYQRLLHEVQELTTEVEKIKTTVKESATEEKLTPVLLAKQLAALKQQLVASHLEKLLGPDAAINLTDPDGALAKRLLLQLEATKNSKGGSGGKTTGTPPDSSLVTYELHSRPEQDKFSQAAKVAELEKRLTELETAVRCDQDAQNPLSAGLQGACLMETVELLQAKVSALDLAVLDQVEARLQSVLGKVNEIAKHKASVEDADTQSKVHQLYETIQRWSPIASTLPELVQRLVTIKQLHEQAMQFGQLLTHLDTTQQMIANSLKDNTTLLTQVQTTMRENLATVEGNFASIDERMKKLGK

Key:
Assay in all cases: log2 fold change, soluble protein after heating vs DMSO (PISA); higher = thermal stabilisation; K562 cells, 10 uM, 30 min; active = over 0.2 and 3.5 SD of the protein, either way, in both replicates (recomputed)
[1] = compound: CC1=C(C=C(C=C1)NC(=O)C2=CC(=CC=C2)C(C)(C)C#N)NC3=CC4=C(C=C3)N=CN(C4=O)C
Method in brief: (§1)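 Aliquots of K562 cells (2×10^6 cells/mL) treated with 10 μM compound for 30 min were heated for 3 min over 48°C-58°C. After pooling and extraction in PBS with 0.5% NP-40 at 4°C, soluble protein from a 21,000xg, 90 min spin was quantified by TMTpro 16plex LC-MS/MS with channel sums equalised. Thermal stability is expressed against control samples, from duplicates, as a log2 fold change.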

[2] = compound: CC1=C(C=C(C=C1)NC(=O)C2=CC(=CC=C2)N(C)C)NC(=O)C3=CC=C(C=C3)O
Method in brief: as §1

[3] = compound: CC1=CC=C(C=C1)SC2=C3C=C(SC3=CN=C2)C(=O)N
Method in brief: as §1

[4] = compound: CC1=NC(=CC=C1)C2=C(N=C(N2)C(C)(C)C)C3=CC4=NC=CN=C4C=C3
Method in brief: as §1

Nexturastat A = compound: CCCCN(Cc1ccc(C(=O)NO)cc1)C(=O)Nc1ccccc1 [Nexturastat A]
Method in brief: as §1

vemurafenib = compound: CCCS(=O)(=O)Nc1ccc(F)c(C(=O)c2c[nH]c3ncc(-c4ccc(Cl)cc4)cc23)c1F [vemurafenib]
Method in brief: as §1

[5] = compound: CCCS(=O)(=O)Nc1ccc(F)c(C(=O)c2c[nH]c3ncc(Cl)cc23)c1F
Method in brief: as §1

[6] = compound: CCCc1cc(C)[nH]c(=O)c1CNC(=O)c1cc(-c2ccnc(N3CCN(C)CC3)c2)cc2c1cnn2C(C)C
Method in brief: as §1

givinostat = compound: CCN(CC)Cc1ccc2cc(COC(=O)Nc3ccc(C(=O)NO)cc3)ccc2c1 [givinostat]
Method in brief: as §1

barasertib = compound: CCN(CCCOc1ccc2c(Nc3cc(CC(=O)Nc4cccc(F)c4)[nH]n3)ncnc2c1)CCOP(=O)(O)O [barasertib]
Method in brief: as §1

[7] = compound: CC[C@@H]1C(=O)N(C)c2cnc(Nc3ccc(C(=O)NC4CCN(C)CC4)cc3OC)nc2N1C1CCCC1
Method in brief: as §1

volasertib = compound: CC[C@@H]1C(=O)N(C)c2cnc(Nc3ccc(C(=O)N[C@H]4CC[C@H](N5CCN(CC6CC6)CC5)CC4)cc3OC)nc2N1C(C)C [volasertib]
Method in brief: as §1

[8] = compound: CC[C@H](C)N1C=C(C2=C(C=C(C=C21)C3=CN=C(C=C3)N4CCNCC4)C(=O)NCC5=C(C=C(NC5=O)C)C)C
Method in brief: as §1

epoxomicin = compound: CC[C@H](C)[C@@H](C(=O)N[C@@H]([C@@H](C)O)C(=O)N[C@@H](CC(C)C)C(=O)[C@]1(CO1)C)NC(=O)[C@H]([C@@H](C)CC)N(C)C(=O)C [epoxomicin]
Method in brief: as §1

[9] = compound: CCn1c(C(=O)N(C2CC2)C2CC2)cc2c3c(ncn3C)c(Nc3cc(C)n(C)n3)nc21
Method in brief: as §1

[10] = compound: CCn1cc(-c2ccnc3[nH]c(-c4cccc(CN(C)C)c4)cc23)c(-c2ccc(NC(=O)N(C)C)cc2)n1
Method in brief: as §1

[11] = compound: CN(C)CC(=O)Nc1ccc2[nH]c(=O)c3ccccc3c2c1
Method in brief: as §1

rosiglitazone = compound: CN(CCOC1=CC=C(C=C1)C[C@H]2C(=O)NC(=O)S2)C3=CC=CC=N3 (racemic) [rosiglitazone]
Method in brief: as §1

[12] = compound: CN1C2=C(C3=C1C(=O)N(N=C3)CC4=CC(=CC=C4)N)SC(=C2)S(=O)C
Method in brief: as §1

[13] = compound: CN1CCC(CNc2ccc3ncc(-c4cccc(OC(F)(F)F)c4)n3n2)CC1
Method in brief: as §1

Measured: log2 fold change

CSTF2T (UniProt Q9H0L4)
inactive: [1] 0.004 | [2] 0.004 | [3] -0.006 | [4] 0.015 | Nexturastat A -0.099 | vemurafenib 0.021 | [5] -0.042 | [6] -0.065 | givinostat -0.006 | barasertib -0.022 | [7] 0.095 | volasertib 0.048 | [8] -0.034 | epoxomicin 0.016 | [9] -0.031 | [10] 0.04 | [11] -0.003 | rosiglitazone 0.018 | [12] 0.002 | [13] 0.114

CUL5 (UniProt Q93034)
inactive: [1] -0.005 | [2] 0 | [3] 0.017 | [4] -0.007 | Nexturastat A -0.089 | vemurafenib -0.008 | [5] 0.008 | [6] -0.025 | givinostat 0.002 | barasertib -0.004 | [7] 0.039 | volasertib 0.025 | [8] -0.016 | epoxomicin -0.008 | [9] -0.014 | [10] -0.021 | [11] -0.003 | rosiglitazone 0.025 | [12] -0.051 | [13] -0.037

DCP1A (UniProt Q9NPI6)
inactive: [1] 0.083 | [2] -0.001 | [3] -0.06 | [4] -0.004 | Nexturastat A -0.031 | vemurafenib 0.132 | [5] -0.005 | [6] 0.04 | givinostat 0.095 | barasertib 0.106 | [7] -0.1 | volasertib -0.201 | [8] 0.151 | epoxomicin 0.014 | [9] -0.04 | [10] -0.071 | [11] 0.061 | rosiglitazone 0.035 | [12] 0.189 | [13] -0.131

CWF19L1 (UniProt Q69YN2)
inactive: [1] 0.049 | [2] -0.03 | [3] -0.016 | [4] 0.004 | Nexturastat A -0.039 | vemurafenib 0 | [5] 0.034 | [6] 0.012 | givinostat 0.009 | barasertib 0.016 | [7] 0.001 | volasertib -0.1 | [8] 0.016 | epoxomicin 0.018 | [9] 0.001 | [10] 0.018 | [11] 0.028 | rosiglitazone -0.011 | [12] -0.005 | [13] 0.006

Reprinted from the entries so far (2 entries):
DCP1A (UniProt Q9NPI6)
inactive: [1] 0.083 | [2] -0.001 | [3] -0.06 | [4] -0.004 | Nexturastat A -0.031 | vemurafenib 0.132 | [5] -0.005 | [6] 0.04 | givinostat 0.095 | barasertib 0.106 | [7] -0.1 | volasertib -0.201 | [8] 0.151 | epoxomicin 0.014 | [9] -0.04 | [10] -0.071 | [11] 0.061 | rosiglitazone 0.035 | [12] 0.189 | [13] -0.131

CWF19L1 (UniProt Q69YN2)
inactive: [1] 0.049 | [2] -0.03 | [3] -0.016 | [4] 0.004 | Nexturastat A -0.039 | vemurafenib 0 | [5] 0.034 | [6] 0.012 | givinostat 0.009 | barasertib 0.016 | [7] 0.001 | volasertib -0.1 | [8] 0.016 | epoxomicin 0.018 | [9] 0.001 | [10] 0.018 | [11] 0.028 | rosiglitazone -0.011 | [12] -0.005 | [13] 0.006

The list continues:

DCAKD (UniProt Q8WVC6)
inactive: [1] -0.035 | [2] -0.005 | [3] -0.004 | [4] -0.162 | Nexturastat A 0.084 | vemurafenib 0.015 | [5] 0 | [6] -0.044 | givinostat 0.004 | barasertib 0.068 | [7] -0.132 | volasertib -0.051 | [8] -0.026 | epoxomicin -0.072 | [9] 0.019 | [10] 0.069 | [11] 0.072 | rosiglitazone -0.028 | [12] -0.007 | [13] -0.17

DAGLB (UniProt Q8NCG7)
inactive: [1] -0.012 | [2] -0.025 | [3] 0.166 | [4] -0.037 | Nexturastat A 0.041 | vemurafenib -0.011 | [5] -0.044 | [6] 0.011 | givinostat -0.022 | barasertib 0.013 | [7] 0.048 | volasertib -0.093 | [8] -0.034 | epoxomicin 0.205 | [9] 0.004 | [10] -0.13 | [11] -0.021 | rosiglitazone -0.013 | [12] -0.02 | [13] -0.131

DCTN2 isoform 2 (UniProt Q13561)
inactive: [1] 0.036 | [2] -0.055 | [3] 0.029 | [4] 0.012 | Nexturastat A -0.029 | vemurafenib 0.053 | [5] 0.043 | [6] 0.015 | givinostat 0.054 | barasertib 0.023 | [7] -0.022 | volasertib -0.171 | [8] 0.058 | epoxomicin 0.065 | [9] 0.01 | [10] -0.031 | [11] 0.001 | rosiglitazone 0.014 | [12] -0.036 | [13] 0.011

DAP3 (UniProt P51398)
inactive: [1] -0.002 | [2] -0.027 | [3] 0.016 | [4] -0.022 | Nexturastat A 0.128 | vemurafenib 0.007 | [5] 0.041 | [6] 0.02 | givinostat 0.084 | barasertib -0.054 | [7] -0.006 | volasertib 0.044 | [8] 0.127 | epoxomicin -0.043 | [9] -0.01 | [10] -0.069 | [11] -0.044 | rosiglitazone -0.06 | [12] 0.065 | [13] 0.005
